Experimental data taken from PubChem BioAssay AID2417 (National Center for Advancing Translational Sciences (NCATS), 2010).
The whole screen tested about 140,000 compounds, of which about 4,300 (3.1%) were called active. The inconclusive results got no clear call from the source; some entries with a clear call stand among them for comparison.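 The calls were made as follows: active = readout at or below -70, meaning at least 70% loss of cells showing the perinucleolar compartment, a nuclear body marking cancer cells; inconclusive = readout between -30 and a set limit; inactive = the rest.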

Experiment: High Content Assay for Compounds that inhibit the Assembly of the Perinucleolar Compartment;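 also: plate controls were DMSO wells for no effect and camptothecin positive control wells for full effect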
Details: PC3M PTB-GFP, PNC prevalence imaging, 16 h; at 10 µM; stronger effect = lower value
In short: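 Compounds are pinned in duplicate onto adhered PC3M cells stably expressing GFP-tagged PTB and incubated 16 h at 37 C. Cells are then fixed, nuclei stained with Hoechst, and PNC-positive cells counted.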

Compound | activity change (PNC), negative = inhibition
O=C(CSc1nccn1Cc1ccccc1)NCc1ccccc1 | inconclusive: -43.1%
O=C1C2CCCN2C(c2ccc(Br)cc2)N1c1ccc(F)cc1 (configuration not stated) | inconclusive: -49.7%
N#Cc1ccc(N2Cc3ccccc3/C2=N/C(=O)Nc2ccc(Cl)cc2)cc1 | inactive: 16.1%
Cc1ccc(Cn2ccc(=O)c(OCc3c(Cl)cccc3Cl)c2C)cc1 | inconclusive: -35.5%
CC(=O)c1ccc(NS(=O)(=O)c2ccccc2)cc1 | inconclusive: -46.2%
Cc1ccc(NC(=O)CCn2c(=O)oc3ccccc32)c(C)c1 | inactive: 14.2%
C=CCNC(=O)c1scc2c1CCCC2 | inconclusive: -38.8%
CCOC(=O)C1(Cc2ccc(O)cc2)NC(c2ccco2)C2C(=O)N(c3ccccc3F)C(=O)C21 (configuration not stated) | inconclusive: -53.5%
Nc1c(S(=O)(=O)c2cccs2)c2nc3ccccc3nc2n1Cc1ccc2c(c1)OCO2 | inconclusive: -44.6%
COC(=O)c1ccc(COC(=O)c2ccccc2OC)cc1 | inactive: -18.2%
CSCCC(N=Cc1c(O)n(-c2ccc(F)cc2)c(=O)[nH]c1=O)C(=O)O (configuration not stated) | inconclusive: -75.6%
COc1ccc2nc(NC(=O)C3CCCN(S(=O)(=O)c4cccc5nsnc45)C3)sc2c1 (configuration not stated) | inconclusive: -41.5%
CCN(CC(=O)NC1CCS(=O)(=O)C1)S(=O)(=O)c1ccc(C)c(C)c1 (configuration not stated) | inactive: 20.4%
CN=C(c1ccco1)n1c(=S)nc(-c2ccco2)n(C)c1=S | inactive: -16%
Cn1c(SCc2nc3ccccc3[nH]2)nnc1-c1cnccn1 | inconclusive: -36.6%
Cc1cc(C)n(-c2nc(SCCN(C)C)c3c4c(sc3n2)CCCC4)n1 | inconclusive: -35.2%
CCOC(=O)N1CCN(CC(=O)Nc2ccc(Oc3ccccc3)cc2)CC1 | inactive: -15.3%
COc1cccc(/C=C2\N=C(SC)SC2=O)c1OC | active: -91.2%
Cc1ccc(-c2onc3ccc(Cl)cc23)cc1 | inconclusive: -33.2%
Cc1ccc(N2C(=O)N(CC(=O)c3cc(C)ccc3C)C(=O)C2C)cc1 (configuration not stated) | inconclusive: -41.4%
O=C(OCC(=O)N1CCN(C(=O)c2ccco2)CC1)c1ccccc1C(=O)c1ccccc1 | inactive: -20.4%
COc1cccc(N2CCN(C3CC(=O)N(c4ccc(Cl)c(Cl)c4)C3=O)CC2)c1 (configuration not stated) | inactive: 26.4%

Compound | activity change (PNC), negative = inhibition
COCCNC(=O)C1(C)Oc2ccccc2NC1=O (configuration not stated) | inactive: -6.93%
Cc1ccc(NC2CC(=O)N(c3ccc(C)cc3)C2=O)cc1 (configuration not stated) | inactive: 47.7%
COC(=O)[C@@H]1CC[C@H](C)[C@@H](c2ccc(C)cc2)N1C(=O)c1ccc(/C=N/O[C@@H](C)c2cn([C@H](CO)Cc3ccccc3)nn2)cc1 | inconclusive: -37.1%
Cc1ccccc1C(=O)NCCCc1ccccc1 | inactive: 38.9%
COc1ccc(/C=N/NC(=O)CN(Cc2ccccc2)S(=O)(=O)c2ccc3c(c2)OCCO3)cc1 | inconclusive: -31.9%
CC(C)CNC(=O)COC(=O)c1c2c(nc3ccccc13)/C(=C/c1cccs1)CC2 | inconclusive: -57.3%
Cc1ccc(C(=O)CNc2ccc(Br)cc2)cc1 | inactive: 47.2%
C=CCn1c(SCc2ccc(C#N)cc2)nnc1-c1cccc(Cl)c1 | inconclusive: -38.5%
COc1ccc(CCN2C(=O)C3C4C=CC(C4)C3C2=O)cc1OC (configuration not stated) | inconclusive: -73%
CCc1ccc(C(=O)COC(=O)CNC(=O)COc2ccccc2)cc1 | inconclusive: -63.7%
O=C(CN1C(=O)C2C3C=CC(C3)C2C1=O)NCc1ccc2c(c1)OCO2 (configuration not stated) | inconclusive: -36.9%
COc1ccc(Cl)cc1NC(=S)NCc1ccc(S(N)(=O)=O)cc1 | inactive: 32.7%
O=C(NCCNc1ccc([N+](=O)[O-])cc1C(F)(F)F)c1cccc(F)c1 | inconclusive: -65.4%
COCCCN(C(=O)Nc1cccc(Cl)c1)C(C)c1ccccn1 (configuration not stated) | inconclusive: -44.9%
Cc1onc(-c2c(F)cccc2Cl)c1C(=O)NCCc1ccc(S(N)(=O)=O)cc1 | active: -94.7%
O=C(N/N=C/c1c(Nc2cccc(C(F)(F)F)c2)nc2ccccn2c1=O)c1ccccc1[N+](=O)[O-] | active: -113%
COC(=O)c1c(NC(=O)C2CCCO2)sc2c1CCC2 (configuration not stated) | inconclusive: -33.2%
Cn1cccc1C(=S)N=P(C1CCCCC1)(N1CCOCC1)N1CCOCC1 | inconclusive: -45.2%
COc1ccccc1NC(=O)CN(c1ccc(C)cc1)S(=O)(=O)c1c(C)n[nH]c1C | inconclusive: -59.6%
Cc1cccc(Cc2cnc(NC(=O)CN3C(=O)/C(=C/c4ccccc4)SC3=S)s2)c1 | inconclusive: -49%
CCOC(=O)c1cc2sccc2n1CC(=O)N1CCc2ccccc21 | inactive: 14.2%
O=c1c2c(-c3cccs3)csc2ncn1-c1ccc(Br)cc1 | inactive: -3.76%

For convenience, 23 of the compounds above.
Compound | activity change (PNC), negative = inhibition
Cc1ccc(-c2onc3ccc(Cl)cc23)cc1 | inconclusive: -33.2%
Cc1ccc(N2C(=O)N(CC(=O)c3cc(C)ccc3C)C(=O)C2C)cc1 (configuration not stated) | inconclusive: -41.4%
O=C(OCC(=O)N1CCN(C(=O)c2ccco2)CC1)c1ccccc1C(=O)c1ccccc1 | inactive: -20.4%
COc1cccc(N2CCN(C3CC(=O)N(c4ccc(Cl)c(Cl)c4)C3=O)CC2)c1 (configuration not stated) | inactive: 26.4%
COCCNC(=O)C1(C)Oc2ccccc2NC1=O (configuration not stated) | inactive: -6.93%
Cc1ccc(NC2CC(=O)N(c3ccc(C)cc3)C2=O)cc1 (configuration not stated) | inactive: 47.7%
COC(=O)[C@@H]1CC[C@H](C)[C@@H](c2ccc(C)cc2)N1C(=O)c1ccc(/C=N/O[C@@H](C)c2cn([C@H](CO)Cc3ccccc3)nn2)cc1 | inconclusive: -37.1%
Cc1ccccc1C(=O)NCCCc1ccccc1 | inactive: 38.9%
COc1ccc(/C=N/NC(=O)CN(Cc2ccccc2)S(=O)(=O)c2ccc3c(c2)OCCO3)cc1 | inconclusive: -31.9%
CC(C)CNC(=O)COC(=O)c1c2c(nc3ccccc13)/C(=C/c1cccs1)CC2 | inconclusive: -57.3%
Cc1ccc(C(=O)CNc2ccc(Br)cc2)cc1 | inactive: 47.2%
C=CCn1c(SCc2ccc(C#N)cc2)nnc1-c1cccc(Cl)c1 | inconclusive: -38.5%
COc1ccc(CCN2C(=O)C3C4C=CC(C4)C3C2=O)cc1OC (configuration not stated) | inconclusive: -73%
CCc1ccc(C(=O)COC(=O)CNC(=O)COc2ccccc2)cc1 | inconclusive: -63.7%
O=C(CN1C(=O)C2C3C=CC(C3)C2C1=O)NCc1ccc2c(c1)OCO2 (configuration not stated) | inconclusive: -36.9%
COc1ccc(Cl)cc1NC(=S)NCc1ccc(S(N)(=O)=O)cc1 | inactive: 32.7%
O=C(NCCNc1ccc([N+](=O)[O-])cc1C(F)(F)F)c1cccc(F)c1 | inconclusive: -65.4%
COCCCN(C(=O)Nc1cccc(Cl)c1)C(C)c1ccccn1 (configuration not stated) | inconclusive: -44.9%
Cc1onc(-c2c(F)cccc2Cl)c1C(=O)NCCc1ccc(S(N)(=O)=O)cc1 | active: -94.7%
O=C(N/N=C/c1c(Nc2cccc(C(F)(F)F)c2)nc2ccccn2c1=O)c1ccccc1[N+](=O)[O-] | active: -113%
COC(=O)c1c(NC(=O)C2CCCO2)sc2c1CCC2 (configuration not stated) | inconclusive: -33.2%
Cn1cccc1C(=S)N=P(C1CCCCC1)(N1CCOCC1)N1CCOCC1 | inconclusive: -45.2%
COc1ccccc1NC(=O)CN(c1ccc(C)cc1)S(=O)(=O)c1c(C)n[nH]c1C | inconclusive: -59.6%

(listing goes on)

Compound | activity change (PNC), negative = inhibition
COCCCn1c(=S)[nH]c2ccc(N3CCOCC3)cc2c1=O | inconclusive: -38.4%
CCCSc1nc(=O)n2cc(C)ccc2n1 | inconclusive: -47.8%
COc1ccc(-c2noc(C)c2-c2ccc3ccccc3n2)c(O)c1 | inconclusive: -34.5%
CC(=O)Oc1c(C)cc(Cl)cc1C(=O)Nc1ccc([N+](=O)[O-])cc1Cl | inactive: -11.6%
COc1ccccc1NC(=O)c1ccc(NS(=O)(=O)c2ccc(F)c(Cl)c2)cc1 | inconclusive: -33%
Cc1ccc(Nc2ccc(C(=O)O)cc2N)cc1 | inactive: 0.734%
Cc1cc2c(c(=O)n1Cc1ccco1)C(c1cccnc1)C(C#N)=C(N)O2 (configuration not stated) | inconclusive: -46.9%
COc1cc(C(=O)NC(=S)Nc2ccc3c(c2)C(=O)N(C)C3=O)cc(OC)c1OC | inactive: 9.49%
Cn1c(SCC(=O)N2CCCc3ccccc32)nnc1-c1c[nH]c2ccccc12 | inconclusive: -78.7%
CCOC(=O)c1ccc(NC(=O)COC)cc1 | active: -88.7%
CC1(C)Oc2ccc(C(=O)NC3CCCC3)cc2N(CC(=O)N2CCOCC2)C1=O | inconclusive: -54.1%
Cn1c(=O)c2c(nc(NCc3ccc4c(c3)OCO4)n2Cc2ccccc2Cl)n(C)c1=O | inactive: 52.3%
N#CC(c1ccccc1)c1ccc2c(C(F)(F)F)cc(C(F)(F)F)nc2n1 (configuration not stated) | inactive: 7.34%
COc1ccc(CCNS(=O)(=O)c2ccc(C3CNC(=O)C3)cc2)cc1OC (configuration not stated) | active: -119%
CC(NC(=O)c1cccs1)c1n[nH]c(=S)n1C (configuration not stated) | inconclusive: -65.1%
CCOC(=O)C1C(=O)C=C(Nc2ccccc2F)CC1c1ccccc1 (configuration not stated) | inconclusive: -53.6%
CC(C)Oc1ccc(C(=O)Nc2ccc(N3CCCC3)cc2)cc1 | inconclusive: -68.9%
NS(=O)(=O)c1ccc(CNC(=O)/C=C/c2ccc(Cl)c(Cl)c2)cc1 | inconclusive: -32.4%
COc1cc(C(=O)NCC(=O)n2nc(C)cc2C)cc(OC)c1OC | inconclusive: -39.4%
COc1ccccc1NC(=O)C(Cc1ccc(Cl)cc1)c1nn[nH]n1 (configuration not stated) | inconclusive: -65.7%
COc1ccc(S(=O)(=O)NCCc2nnc3ccc(SCC(=O)Nc4nc(C)cs4)nn23)cc1 | inconclusive: -36.5%
O=S(=O)(c1ccc(S(=O)(=O)N(Cc2ccco2)Cc2ccccc2Cl)cc1)N1CCCC1 | inactive: 18.1%

Compound | activity change (PNC), negative = inhibition
Cc1sc2nc3c(SC(C)C(=O)O)cc(C(=O)c4ccccc4O)cn3c(=O)c2c1C (configuration not stated) | inactive: -17.8%
COC(=O)c1cn(NC(=O)/C=C/c2ccc(OC)c(OC)c2)c(=O)c2ccccc12 | inactive: -24.5%
O=C(Nc1cccc(F)c1)N1CC=C(n2c(=O)[nH]c3ccccc32)CC1 | inconclusive: -54.1%
CCOC(=O)c1ccccc1NC1c2ccccc2C(=O)N1c1cc(C)ccn1 (configuration not stated) | inconclusive: -31.5%
COC(=O)c1ccc(OC(C)C(=O)c2ccc(C)cc2)cc1 (configuration not stated) | inactive: 25%
Cc1ccc(C)c(N2CCN(S(=O)(=O)c3c(C)noc3/C=C/N(C)C)CC2)c1 | inconclusive: -44.6%
COc1cccc(-c2cc(C(=O)Nc3cc(C)n(Cc4ccc(Cl)cc4)n3)no2)c1 | inconclusive: -54.5%
Cc1ccc(C(=O)C(C)OC(=O)c2cc3cc([N+](=O)[O-])ccc3oc2=O)cc1 (configuration not stated) | inconclusive: -32.5%
CCN(CC)S(=O)(=O)c1ccc(N2CCN(S(=O)(=O)c3ccc4c(c3)OCCO4)CC2)nc1 | active: -91%
COc1ccccc1C(=O)N1CCN(c2cccc(C(F)(F)F)c2)CC1 | inconclusive: -58.9%
Cc1ccc(OCC(=O)Nn2c(C)nc3ccccc3c2=O)c(C(C)C)c1 | inconclusive: -47.6%
Fc1ccccc1CSc1nnc(-c2ccccc2)o1 | inconclusive: -57.2%
COc1ccccc1NC(=O)CN1CCN(Cc2ccccc2)CC1 | active: -86.9%
CCCn1c(-c2cccc([N+](=O)[O-])c2)nc2c1c(=O)[nH]c(=O)n2Cc1ccccc1 | inactive: -20.7%
CC(C)COc1ccc(C(=O)NC(=S)Nc2ccc(CN3CCOCC3)cc2)cc1 | inconclusive: -37%
O=C(Nc1ccccc1C(=O)N/N=C/c1ccco1)c1ccc(F)cc1 | active: -86.3%
CCC(=O)Nc1nc(CC(=O)Nc2ccccc2)cs1 | inconclusive: -39.4%
CC(C)(C)n1nnnc1C(c1cccs1)N(Cc1cccnc1)Cc1ccco1 (configuration not stated) | inconclusive: -75.5%
Cn1c(Cn2c(=O)sc3ccccc32)nnc1SCc1ccccc1 | inconclusive: -42.3%
C=CCc1c(OC(C)=O)c2ccccc2n(C)c1=O | active: -106%
CCN(CC)S(=O)(=O)c1ccc(OC)nc1 | inconclusive: -44.2%
